No constants are given. Whether binding was seen depends on the method and setting. In cells and extracts the contact can be indirect. A yes stands for co-enrichment or nearness to the bait. Other partners may have been found. Where a sequence is shown, tags or fusion partners need not be part of it.
T1: pAtPNP-A, N-terminally biotinylated AtPNP-A(33–66) peptide containing the active region of AtPNP-A (Arabidopsis thaliana) (UniProt Q9ZV52)
T1 sequence (peptide, biotin on the N-terminus; two cysteine residues forming a disulfide bond): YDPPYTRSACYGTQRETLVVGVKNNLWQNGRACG

Protein sequences, listed by entry. Tags and fused reporters are not part of them. Lines headed by an entry give the natural chain unless they say otherwise; changes in a name come on top. Residues count along the entry.
UniProt Q9SHE8, residues 68-221: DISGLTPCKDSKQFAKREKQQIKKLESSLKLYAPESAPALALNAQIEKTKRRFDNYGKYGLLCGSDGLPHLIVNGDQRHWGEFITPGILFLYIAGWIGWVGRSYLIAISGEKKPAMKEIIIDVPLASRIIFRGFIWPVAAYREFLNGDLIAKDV
UniProt P29511: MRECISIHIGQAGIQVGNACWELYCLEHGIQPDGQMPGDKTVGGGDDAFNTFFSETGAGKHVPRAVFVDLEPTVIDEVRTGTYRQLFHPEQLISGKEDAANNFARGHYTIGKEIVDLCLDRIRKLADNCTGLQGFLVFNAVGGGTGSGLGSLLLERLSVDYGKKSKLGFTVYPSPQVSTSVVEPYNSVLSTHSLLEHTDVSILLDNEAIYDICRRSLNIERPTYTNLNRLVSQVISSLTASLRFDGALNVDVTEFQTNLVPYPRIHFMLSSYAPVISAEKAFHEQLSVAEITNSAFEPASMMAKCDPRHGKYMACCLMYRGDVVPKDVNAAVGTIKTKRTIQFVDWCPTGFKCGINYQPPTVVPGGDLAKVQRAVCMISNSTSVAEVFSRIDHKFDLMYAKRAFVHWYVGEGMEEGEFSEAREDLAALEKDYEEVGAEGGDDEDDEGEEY
UniProt Q9S7N7, residues 61-160: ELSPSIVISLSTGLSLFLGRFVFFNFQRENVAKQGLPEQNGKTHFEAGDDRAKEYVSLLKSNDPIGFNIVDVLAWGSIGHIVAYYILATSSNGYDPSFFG
UniProt P31167, residues 71-381: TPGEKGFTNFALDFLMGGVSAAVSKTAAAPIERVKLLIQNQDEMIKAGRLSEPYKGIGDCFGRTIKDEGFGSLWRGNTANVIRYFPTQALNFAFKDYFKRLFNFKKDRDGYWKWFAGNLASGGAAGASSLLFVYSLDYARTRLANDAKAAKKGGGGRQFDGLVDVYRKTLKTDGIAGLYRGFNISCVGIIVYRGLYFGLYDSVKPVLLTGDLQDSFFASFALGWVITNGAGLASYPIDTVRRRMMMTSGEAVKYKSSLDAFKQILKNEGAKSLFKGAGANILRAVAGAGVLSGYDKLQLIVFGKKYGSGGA
UniProt P56757: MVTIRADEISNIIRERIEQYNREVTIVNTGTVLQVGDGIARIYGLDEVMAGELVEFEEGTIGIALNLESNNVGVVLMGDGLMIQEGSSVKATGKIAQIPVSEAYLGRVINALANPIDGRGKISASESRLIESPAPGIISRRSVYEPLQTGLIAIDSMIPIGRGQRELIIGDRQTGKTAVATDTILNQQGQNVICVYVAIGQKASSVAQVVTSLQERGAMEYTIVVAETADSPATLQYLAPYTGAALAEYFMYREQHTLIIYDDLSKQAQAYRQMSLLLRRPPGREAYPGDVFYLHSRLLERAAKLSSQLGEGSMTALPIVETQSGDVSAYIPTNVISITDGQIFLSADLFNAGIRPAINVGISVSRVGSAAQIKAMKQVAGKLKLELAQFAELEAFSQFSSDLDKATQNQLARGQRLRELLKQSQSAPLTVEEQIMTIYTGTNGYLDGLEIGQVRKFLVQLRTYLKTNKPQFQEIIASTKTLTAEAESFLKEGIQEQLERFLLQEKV
UniProt P41376: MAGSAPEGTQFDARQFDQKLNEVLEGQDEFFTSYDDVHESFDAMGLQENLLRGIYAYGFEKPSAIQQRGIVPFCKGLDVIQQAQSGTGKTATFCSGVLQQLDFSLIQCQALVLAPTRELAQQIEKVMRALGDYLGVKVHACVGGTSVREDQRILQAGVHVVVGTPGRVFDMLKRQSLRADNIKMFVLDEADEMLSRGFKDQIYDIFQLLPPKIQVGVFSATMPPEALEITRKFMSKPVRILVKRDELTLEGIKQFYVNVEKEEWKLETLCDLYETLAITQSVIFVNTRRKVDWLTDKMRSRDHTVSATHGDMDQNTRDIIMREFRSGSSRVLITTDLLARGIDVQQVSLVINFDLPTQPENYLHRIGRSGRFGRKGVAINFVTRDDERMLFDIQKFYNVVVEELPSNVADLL
UniProt Q01667, residues 36-241: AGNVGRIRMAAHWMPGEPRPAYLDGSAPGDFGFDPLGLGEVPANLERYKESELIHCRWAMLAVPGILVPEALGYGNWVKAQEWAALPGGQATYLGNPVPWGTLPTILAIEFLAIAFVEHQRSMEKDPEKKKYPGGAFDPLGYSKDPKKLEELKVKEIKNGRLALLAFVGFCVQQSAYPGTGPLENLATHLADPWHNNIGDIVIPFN
UniProt P21240, residues 55-600: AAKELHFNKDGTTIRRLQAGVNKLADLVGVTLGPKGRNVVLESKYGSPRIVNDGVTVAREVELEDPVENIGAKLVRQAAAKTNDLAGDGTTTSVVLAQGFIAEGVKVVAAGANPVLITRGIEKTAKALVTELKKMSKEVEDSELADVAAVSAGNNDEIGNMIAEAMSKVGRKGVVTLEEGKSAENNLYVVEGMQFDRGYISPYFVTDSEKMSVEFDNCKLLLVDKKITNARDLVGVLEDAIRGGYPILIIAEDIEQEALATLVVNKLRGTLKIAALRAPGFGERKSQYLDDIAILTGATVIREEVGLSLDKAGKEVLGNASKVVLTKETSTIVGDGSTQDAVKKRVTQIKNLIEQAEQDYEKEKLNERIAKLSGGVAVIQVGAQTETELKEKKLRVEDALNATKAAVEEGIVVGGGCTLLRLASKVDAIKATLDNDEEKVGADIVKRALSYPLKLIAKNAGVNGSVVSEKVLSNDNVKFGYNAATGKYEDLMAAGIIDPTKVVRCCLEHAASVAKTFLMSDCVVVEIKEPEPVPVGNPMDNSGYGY
UniProt Q9SY97, residues 40-273: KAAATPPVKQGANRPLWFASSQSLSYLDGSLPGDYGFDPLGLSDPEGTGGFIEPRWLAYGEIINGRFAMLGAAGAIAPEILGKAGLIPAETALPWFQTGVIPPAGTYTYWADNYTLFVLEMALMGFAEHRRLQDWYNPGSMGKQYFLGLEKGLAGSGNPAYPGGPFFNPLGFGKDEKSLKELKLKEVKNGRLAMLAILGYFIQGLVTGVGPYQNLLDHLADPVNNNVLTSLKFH
UniProt P17745, residues 68-476: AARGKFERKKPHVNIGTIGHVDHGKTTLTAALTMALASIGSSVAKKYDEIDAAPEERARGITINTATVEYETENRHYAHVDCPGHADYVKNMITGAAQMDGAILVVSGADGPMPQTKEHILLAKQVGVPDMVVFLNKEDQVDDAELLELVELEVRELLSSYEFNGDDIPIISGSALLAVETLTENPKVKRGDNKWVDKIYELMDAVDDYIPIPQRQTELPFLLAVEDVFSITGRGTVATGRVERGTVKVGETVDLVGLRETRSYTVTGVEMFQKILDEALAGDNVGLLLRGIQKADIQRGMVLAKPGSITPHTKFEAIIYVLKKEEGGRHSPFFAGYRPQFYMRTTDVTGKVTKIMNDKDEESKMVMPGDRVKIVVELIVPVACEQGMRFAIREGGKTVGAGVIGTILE
UniProt Q9ZR03, residues 51-229: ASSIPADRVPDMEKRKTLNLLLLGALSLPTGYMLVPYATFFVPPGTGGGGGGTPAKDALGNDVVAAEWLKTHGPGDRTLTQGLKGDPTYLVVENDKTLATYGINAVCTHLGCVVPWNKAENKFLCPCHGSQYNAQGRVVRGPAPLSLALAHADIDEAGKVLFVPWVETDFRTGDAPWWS
UniProt P0DH99: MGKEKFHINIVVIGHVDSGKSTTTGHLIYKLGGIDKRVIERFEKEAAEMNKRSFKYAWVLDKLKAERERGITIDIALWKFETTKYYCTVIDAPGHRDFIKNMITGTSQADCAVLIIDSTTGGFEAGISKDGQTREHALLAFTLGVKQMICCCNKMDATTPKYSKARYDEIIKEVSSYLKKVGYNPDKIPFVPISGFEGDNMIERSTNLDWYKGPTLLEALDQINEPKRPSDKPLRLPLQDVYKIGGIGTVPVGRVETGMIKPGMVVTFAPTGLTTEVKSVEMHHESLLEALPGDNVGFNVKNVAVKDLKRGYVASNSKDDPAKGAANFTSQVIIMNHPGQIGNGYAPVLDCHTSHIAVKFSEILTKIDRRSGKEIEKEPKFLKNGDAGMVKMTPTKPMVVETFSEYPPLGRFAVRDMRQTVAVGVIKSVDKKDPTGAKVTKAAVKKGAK
UniProt Q9FI56, residues 39-929: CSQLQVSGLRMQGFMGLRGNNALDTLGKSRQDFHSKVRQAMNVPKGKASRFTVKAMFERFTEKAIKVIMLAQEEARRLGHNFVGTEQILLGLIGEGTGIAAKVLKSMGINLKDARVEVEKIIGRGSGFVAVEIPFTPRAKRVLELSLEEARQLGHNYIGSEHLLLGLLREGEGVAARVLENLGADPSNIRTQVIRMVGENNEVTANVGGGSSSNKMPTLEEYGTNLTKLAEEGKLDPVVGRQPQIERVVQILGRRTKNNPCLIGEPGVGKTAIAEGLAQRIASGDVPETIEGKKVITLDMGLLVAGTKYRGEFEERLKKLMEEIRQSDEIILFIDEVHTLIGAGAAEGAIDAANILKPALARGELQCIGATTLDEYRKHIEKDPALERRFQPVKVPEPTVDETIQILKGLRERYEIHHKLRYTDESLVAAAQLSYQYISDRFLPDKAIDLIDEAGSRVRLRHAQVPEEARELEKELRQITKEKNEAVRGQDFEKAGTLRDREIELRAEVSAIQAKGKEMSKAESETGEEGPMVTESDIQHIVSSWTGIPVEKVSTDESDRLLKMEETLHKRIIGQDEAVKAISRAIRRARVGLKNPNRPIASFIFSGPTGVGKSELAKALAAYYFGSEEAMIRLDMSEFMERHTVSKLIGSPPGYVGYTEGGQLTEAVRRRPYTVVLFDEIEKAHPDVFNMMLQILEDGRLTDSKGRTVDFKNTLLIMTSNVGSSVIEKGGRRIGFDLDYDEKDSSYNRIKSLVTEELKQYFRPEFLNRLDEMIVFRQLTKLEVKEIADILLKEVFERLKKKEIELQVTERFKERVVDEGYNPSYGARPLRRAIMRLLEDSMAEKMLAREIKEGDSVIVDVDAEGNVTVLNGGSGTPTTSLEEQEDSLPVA

B1: Carbonic anhydrase 2 (CA2) (enzyme, UniProt P42737 72-331)
chain: RMGNESYEDAIEALKKLLIEKDDLKDVAAAKVKKITAELQAASSSDSKSFDPVERIKEGFVTFKKEKYETNPALYGELAKGQSPKYMVFACSDSRVCPSHVLDFHPGDAFVVRNIANMVPPFDKVKYAGVGAAIEYAVLHLKVENIVVIGHSACGGIKGLMSFPLDGNNSTDFIEDWVKICLPAKSKVLAESESSAFEDQCGRCEREAVNVSLANLLTYPFVREGVVKGTLALKGGYYDFVNGSFELWELQFGISPVHSI
B2: Plastid transcriptionally active 16 (PTAC16) (protein, UniProt Q9STF2 20-510)
chain: FNRRKPRLTVWAKQTAFQLGKTKGDDDSEGKQKGKNPFQFDFGKLPDMKSLIPVVTNPSTGLVFGNNRKKDPGTIFVAGATGQAGIRIAQTLLQRGFSVRAGVPDLGAAQDLARVAATYKILSNDEVKRLNAVQSPFQDAESIAKAIGNATKVVVTVGATENGPDAQVSTSDALLVVQAAELAGVSHVAIVYDGTISGSTYNVLDGITSFFGNLFAKSQPLTISDLIEKVAQTDVAYTLIKTSLTEDFSPEKAYNVVVSAEGSNSGSGSSSSEAYKVPKLKIASLVADIFANTAVAENKVVEVSTDPSAPSRPVDELFSVIPEDGRRKVYADAIARERAEEEAKVAADKAREAAEAAKEFEKQMQKLSEKEAEAASLAEDAQQKADAVGVTVDGLFNKAKDISSGLSWNKLGSQFATAIQNASETPKVQVATVRGQAKARNLPPKKAVVKQRPSSPFASKPKEERPKKPEKEVRKVFGGLFKQETIYIDDD
B3: Glyceraldehyde 3-phosphate dehydrogenase A subunit (GAPA) (enzyme, UniProt P25856 61-396)
chain: KLKVAINGFGRIGRNFLRCWHGRKDSPLDIIAINDTGGVKQASHLLKYDSTLGIFDADVKPSGETAISVDGKIIQVVSNRNPSLLPWKELGIDIVIEGTGVFVDREGAGKHIEAGAKKVIITAPGKGDIPTYVVGVNADAYSHDEPIISNASCTTNCLAPFVKVLDQKFGIIKGTMTTTHSYTGDQRLLDASHRDLRRARAAALNIVPTSTGAAKAVALVLPNLKGKLNGIALRVPTPNVSVVDLVVQVSKKTFAEEVNAAFRDSAEKELKGILDVCDEPLVSVDFRCSDFSTTIDSSLTMVMGDDMVKVIAWYDNEWGYSQRVVDLADIVANNWK
B4: Cobalamin-independent synthase family protein (ATMS1) (enzyme, UniProt O50008 1-765)
chain: MASHIVGYPRMGPKRELKFALESFWDGKSTAEDLQKVSADLRSSIWKQMSAAGTKFIPSNTFAHYDQVLDTTAMLGAVPPRYGYTGGEIGLDVYFSMARGNASVPAMEMTKWFDTNYHYIVPELGPEVNFSYASHKAVNEYKEAKALGVDTVPVLVGPVSYLLLSKAAKGVDKSFELLSLLPKILPIYKEVITELKAAGATWIQLDEPVLVMDLEGQKLQAFTGAYAELESTLSGLNVLVETYFADIPAEAYKTLTSLKGVTAFGFDLVRGTKTLDLVKAGFPEGKYLFAGVVDGRNIWANDFAASLSTLQALEGIVGKDKLVVSTSCSLLHTAVDLINETKLDDEIKSWLAFAAQKVVEVNALAKALAGQKDEALFSANAAALASRRSSPRVTNEGVQKAAAALKGSDHRRATNVSARLDAQQKKLNLPILPTTTIGSFPQTVELRRVRREYKAKKVSEEDYVKAIKEEIKKVVDLQEELDIDVLVHGEPERNDMVEYFGEQLSGFAFTANGWVQSYGSRCVKPPVIYGDVSRPKAMTVFWSAMAQSMTSRPMKGMLTGPVTILNWSFVRNDQPRHETCYQIALAIKDEVEDLEKGGIGVIQIDEAALREGLPLRKSEHAFYLDWAVHSFRITNCGVQDSTQIHTHMCYSHFNDIIHSIIDMDADVITIENSRSDEKLLSVFREGVKYGAGIGPGVYDIHSPRIPSSEEIADRVNKMLAVLEQNILWVNPDCGLKTRKYTEVKPALKNMVDAAKLIRSQLASAK
B5: Glutathione S-transferase phi 8 (GST6) (enzyme, UniProt Q96266 50-263)
chain: ASIKVHGVPMSTATMRVLATLYEKDLQFELIPVDMRAGAHKQEAHLALNPFGQIPALEDGDLTLFESRAITQYLAEEYSEKGEKLISQDCKKVKATTNVWLQVEGQQFDPNASKLAFERVFKGMFGMTTDPAAVQELEGKLQKVLDVYEARLAKSEFLAGDSFTLADLHHLPAIHYLLGTDSKVLFDSRPKVSEWIKKISARPAWAKVIDLQKQ
B6: Transketolase (enzyme, UniProt Q8RWV0 67-741)
chain: AAVETVEPTTDSSIVDKSVNSIRFLAIDAVEKAKSGHPGLPMGCAPMAHILYDEVMRYNPKNPYWFNRDRFVLSAGHGCMLLYALLHLAGYDSVQEEDLKQFRQWGSKTPGHPENFETPGIEVTTGPLGQGIANAVGLALAEKHLAARFNKPDAEVVDHYTYAILGDGCQMEGISNEACSLAGHWGLGKLIAFYDDNHISIDGDTEIAFTENVDQRFEALGWHVIWVKNGNTGYDEIRAAIKEAKTVTDKPTLIKVTTTIGYGSPNKANSYSVHGAALGEKEVEATRNNLGWPYEPFQVPDDVKSHWSRHTPEGATLESDWSAKFAAYEKKYPEEASELKSIITGELPAGWEKALPTYTPESPGDATRNLSQQCLNALAKVVPGFLGGSADLASSNMTLLKAFGDFQKATPEERNLRFGVREHGMGAICNGIALHSPGLIPYCATFFVFTDYMRGAMRISALSEAGVIYVMTHDSIGLGEDGPTHQPIEHIASFRAMPNTLMFRPADGNETAGAYKIAVTKRKTPSILALSRQKLPHLPGTSIEGVEKGGYTISDDSSGNKPDVILIGTGSELEIAAQAAEVLRKDGKTVRVVSFVCWELFDEQSDEYKESVLPSDVSARVSIEAASTFGWGKIVGGKGKSIGINSFGASAPAPLLYKEFGITVEAVVDAAKSFF
B7: Protochlorophyllide oxidoreductase B (PORB) (enzyme, UniProt P21218 67-401)
chain: QTAATSSPTVTKSVDGKKTLRKGNVVVTGASSGLGLATAKALAETGKWNVIMACRDFLKAERAAKSVGMPKDSYTVMHLDLASLDSVRQFVDNFRRTETPLDVLVCNAAVYFPTAKEPTYSAEGFELSVATNHLGHFLLARLLLDDLKKSDYPSKRLIIVGSITGNTNTLAGNVPPKANLGDLRGLAGGLNGLNSSAMIDGGDFDGAKAYKDSKVCNMLTMQEFHRRFHEETGVTFASLYPGCIASTGLFREHIPLFRALFPPFQKYITKGYVSETESGKRLAQVVSDPSLTKSGVYWSWNNASASFENQLSEEASDVEKARKVWEISEKLVGLA
B8: Mitochondrial substrate carrier family protein (protein, UniProt Q9C5M0 1-298)
chain: MAEEKKAPISVWTTVKPFVNGGASGMLATCVIQPIDMIKVRIQLGQGSAASITTNMLKNEGVGAFYKGLSAGLLRQATYTTARLGSFKLLTAKAIESNDGKPLPLYQKALCGLTAGAIGACVGSPADLALIRMQADNTLPLAQRRNYTNAFHALTRISADEGVLALWKGCGPTVVRAMALNMGMLASYDQSAEYMRDNLGFGEMSTVVGASAVSGFCAAACSLPFDFVKTQIQKMQPDAQGKYPYTGSLDCAMKTLKEGGPLKFYSGFPVYCVRIAPHVMMTWIFLNQITKFQKKIGM
B9: FtsH extracellular protease family (FTSH5) (enzyme, UniProt Q9FH02 77-704)
chain: VNEPVQPPAPTITAEAQSPNLSTFGQNVLMTAPNPQAQSSDLPDGTQWRYSEFLNAVKKGKVERVKFSKDGSVLQLTAVDNRRATVIVPNDPDLIDILAMNGVDISVSEGEGGNGLFDFIGNLLFPLLAFGGLFYLFRGGQGGAGGPGGLGGPMDFGRSKSKFQEVPETGVTFGDVAGADQAKLELQEVVDFLKNPDKYTALGAKIPKGCLLVGPPGTGKTLLARAVAGEAGVPFFSCAASEFVELFVGVGASRVRDLFEKAKSKAPCIVFIDEIDAVGRQRGAGMGGGNDEREQTINQLLTEMDGFSGNSGVIVLAATNRPDVLDSALLRPGRFDRQVTVDRPDVAGRVQILKVHSRGKAIGKDVDYEKVARRTPGFTGADLQNLMNEAAILAARRELKEISKDEISDALERIIAGPEKKNAVVSEEKKRLVAYHEAGHALVGALMPEYDPVAKISIIPRGQAGGLTFFAPSEERLESGLYSRSYLENQMAVALGGRVAEEVIFGDENVTTGASNDFMQVSRVARQMVERFGFSKKIGQVAVGGAGGNPFLGQSMSSQKDYSMATADVVDAEVRELVEKAYVRAKEIITTQIDILHKLAQLLIEKETVDGEEFMSLFIDGQAELYVS

molecular target: T1, pAtPNP-A, N-terminally biotinylated AtPNP-A(33–66) peptide containing the active region of AtPNP-A (Arabidopsis thaliana); experiment: affinity purification with mass spectrometry; N-terminally biotinylated peptide bait incubated 15 min with A. thaliana (Col-0) protein extract, no cross-linker, Dynabeads M-280 for 30 min (biotin-streptavidin), eluate on SDS-PAGE, in-gel trypsin digestion, LC-MS/MS; pScr as negative control; three independent experiments; only the target purified

binding, binds:
Photosystem I subunit F (PSAF) (from UniProt Q9SHE8 68-221)
Tubulin/FtsZ family protein (TUA6) (from UniProt P29511 1-450)
Photosystem I subunit G (PSAG) (from UniProt Q9S7N7 61-160)
Actin 8 (ACT8) (from UniProt Q96293 1-377)
ADP/ATP carrier 1 (AAC1) (from UniProt P31167 71-381)
ATP synthase subunit alpha (ATPA) (from UniProt P56757 1-507)
Eukaryotic translation initiation factor 4A1 (EIF4A1) (from UniProt P41376 1-412)
Photosystem I light harvesting complex gene 1 (LHCA1) (from UniProt Q01667 36-241)
Chaperonin 60 beta (LEN1) (from UniProt P21240 55-600)
Photosystem I light harvesting complex gene 3 (LHCA3) (from UniProt Q9SY97 40-273)
RAB GTPase homolog E1B (RABE1b) (from UniProt P17745 68-476)
Photosynthetic electron transfer C (PGR1) (from UniProt Q9ZR03 51-229)
Rieske (2Fe-2S) domain-containing protein (A. thaliana (endogenous in Col-0 plants))
GTP binding Elongation factor Tu family protein (from UniProt P0DH99 1-449)
Actin 7 (ACT7) (from UniProt P53492 1-377)
CLPC homologue 1 (CLPC1) (from UniProt Q9FI56 39-929)
B1
B2
B3
B4
B5
B6
B7
B8
B9

Reference: PMC7823470, “Arabidopsis Plant Natriuretic Peptide Is a Novel Interactor of Rubisco Activase” (Life, 2020)
